Experimental data as given in patent US20030113330A1, “Methods for treating pulmonary fibrosis” (priority 1999, published 2003).
For some assays here: At least one compound was matched to its structure with a doubt left. Some results were stated once for a whole list of compounds, not compound by compound.

Columns and labels:
[1] = test system: primary rat alveolar epithelial cells; experiment: Apoptosis of rat AEC induced by human lung fibroblast-conditioned media; type: cell-based; details: saralasin 50 ug/ml, DEVD-fmk 60 uM, anti-ANGII IgG 1 ug/ml
A549 cells = experiment: FAS-induced apoptosis (activating anti-FAS antibody CH-11) in A549 cells, ISEL / nuclear fragmentation; type: cell-based, human; details: cell type not given
Protocol: Cell Culture. […] Cells were seeded on 12 mm sterile glass cover slips in 24-well chambers at a density of 20,000 cells per well.
Fluorescence Detection of Apoptosis. […] J. Physiol. […] In these assays detached cells were retained by centrifugation of the 24-well culture vessels during fixation with 70% ethanol. In situ end-labeling of fragmented DNA (ISEL) was conducted as described in Gorczyka et al., Canc. Res. 53:1945-1951 (1993). Briefly, ethanol was removed by rinsing cover slips in distilled water for at least 10 minutes. […] The sections were rinsed thoroughly five times with Buffer A and three additional times in 0.5 M PBS. Incorporated bio-UTP was detected by incubation for one hour at 37° C. with avidin-rhodamine; the cover slips were then rinsed in distilled water three times and mounted under Fluoromount Solution (Southern Biotechnology Associates, Birmingham, Ala.).
Spontaneous or stimulated apoptosis was quantitated as described in Uhal et al., Am. J. Physiol. 269:L819-L828 (1995), in the human lung epithelial cell line A549 by fluorescence detection of chromatin condensation and nuclear fragmentation. […] Fixed cells were incubated for 30 minutes with 5 ug/ml propidium iodide (PI) in PBS containing DNAse-free RNAse; under these conditions, red fluorescence (>570 nm) is specific for DNA. […] Apoptotic cells were scored by the nuclear morphology assay discussed above. […]

O=C(O)C1=CC(=C(c2ccc(O)c(C(=O)O)c2)c2ccc(O)c(C(=O)O)c2)C=CC1=O [aurintricarboxylic acid]
inhibition of apoptosis induced by HIPF-conditioned media [1]: could abrogate

NCCCC[C@H](N[C@@H](CCc1ccccc1)C(=O)O)C(=O)N1CCC[C@H]1C(=O)O [lisinopril]
inhibition of AEC apoptosis in response to Fas (A549 cells): 75-85%
